Experiment [1] addresses human mesothelin (MSLN), soluble analyte in Octet (human) (UniProt Q13421). In words: BLI (Octet RED96), Fc fusion on protein A biosensor, MSLN at 100, 50, 25 nM.
The target in experiment [2] is human serum albumin (human) (UniProt P02768). Nature of the experiment: BLI (Octet RED96), antibody on AHC biosensor, albumin at 200 nM. On the technique in general: Biolayer interferometry detects binding as a change in optical thickness at a sensor tip.
For experiment [3] the target is unchanged. In words: Octet RED96 biolayer interferometry; antibody loaded on AHC biosensor, dipped into human serum albumin at 200 nM.
The target of experiment [4] is monkey serum albumin (monkey (Cyno)) (UniProt A2V9Z4). In words: Octet RED96 biolayer interferometry; antibody loaded on AHC biosensor, dipped into monkey (cyno) serum albumin at 200 nM.

The chains behind the UniProt entries cited, without tags or fusion partners. Where a name states a change or a piece, a line headed by the entry shows the natural chain unless it says otherwise. A line that says so, or that is headed by a name, gives the form on record, which may keep a tag or linker. Residues count along the entry.
human mesothelin (MSLN), soluble analyte in Octet (Q13421, form named): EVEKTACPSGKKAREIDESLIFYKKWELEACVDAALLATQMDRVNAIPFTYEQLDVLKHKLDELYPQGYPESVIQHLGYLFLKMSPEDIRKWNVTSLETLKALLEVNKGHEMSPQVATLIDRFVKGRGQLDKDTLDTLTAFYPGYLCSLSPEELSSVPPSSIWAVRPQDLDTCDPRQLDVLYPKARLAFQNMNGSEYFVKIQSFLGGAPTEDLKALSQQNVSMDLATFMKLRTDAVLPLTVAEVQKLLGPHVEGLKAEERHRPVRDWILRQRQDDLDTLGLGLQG
UniProt P02768, residues 25-609: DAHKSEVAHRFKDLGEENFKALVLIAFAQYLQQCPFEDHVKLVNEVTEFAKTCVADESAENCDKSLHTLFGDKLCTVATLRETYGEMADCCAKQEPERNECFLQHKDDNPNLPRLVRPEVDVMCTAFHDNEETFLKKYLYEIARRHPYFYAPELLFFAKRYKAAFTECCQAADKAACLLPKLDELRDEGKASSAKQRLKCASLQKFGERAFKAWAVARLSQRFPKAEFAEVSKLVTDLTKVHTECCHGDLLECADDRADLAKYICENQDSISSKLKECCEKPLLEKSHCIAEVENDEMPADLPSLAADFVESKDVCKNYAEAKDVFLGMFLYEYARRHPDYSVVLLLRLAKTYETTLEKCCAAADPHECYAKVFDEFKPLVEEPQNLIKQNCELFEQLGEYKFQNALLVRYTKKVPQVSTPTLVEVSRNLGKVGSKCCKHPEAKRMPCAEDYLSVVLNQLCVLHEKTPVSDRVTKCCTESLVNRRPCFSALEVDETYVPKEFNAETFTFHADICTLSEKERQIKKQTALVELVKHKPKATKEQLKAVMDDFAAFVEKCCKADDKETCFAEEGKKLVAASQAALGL
UniProt A2V9Z4, residues 25-608: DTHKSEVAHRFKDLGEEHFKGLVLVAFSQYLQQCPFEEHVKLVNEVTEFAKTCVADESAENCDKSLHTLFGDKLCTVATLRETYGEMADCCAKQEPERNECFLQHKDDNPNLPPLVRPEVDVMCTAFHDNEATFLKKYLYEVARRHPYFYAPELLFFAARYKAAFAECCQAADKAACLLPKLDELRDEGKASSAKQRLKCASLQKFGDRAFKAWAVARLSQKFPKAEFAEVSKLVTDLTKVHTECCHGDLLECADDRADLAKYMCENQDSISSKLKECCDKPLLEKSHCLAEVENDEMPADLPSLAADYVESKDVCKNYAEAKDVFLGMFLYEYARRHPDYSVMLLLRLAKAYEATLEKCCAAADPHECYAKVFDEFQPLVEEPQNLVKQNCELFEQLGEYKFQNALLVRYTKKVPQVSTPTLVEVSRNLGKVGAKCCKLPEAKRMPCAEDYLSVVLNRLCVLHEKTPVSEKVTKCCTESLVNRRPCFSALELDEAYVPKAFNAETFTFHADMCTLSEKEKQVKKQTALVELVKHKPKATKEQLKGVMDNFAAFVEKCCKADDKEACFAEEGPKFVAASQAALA

Results are given in words; binding and its absence hold for the method and conditions named. Some results given as binding are weak or reduced against the parent protein; the word gives no strength. For some of these results: Where a sequence is shown, tags or fusion partners need not be part of it.

B1: R3D5 (original llama VHH, Anti-MSLN-3) as human IgG1 Fc fusion (Fc fusion, not shown: a dimerising Fc or GST)
chain: QVQLVESGGGLVQAGGSLRLSCAASGSISSIRHMRWYRQAPGKQRELVATVSNDGSAYYLGSVKGRFTISRTNAKNTLLYLQMNSLKPEDSALYICNADTWGWPGADYWGQGTQVTVSS
In the case of B1, the binding result in experiment [1] was “binds”.

B2: AWT-P494 (humanized P367) anti-HSA antibody (VHH)
VHH: EVQLVESGGGLVQPGGSLRLSCAASGSTWSINTLAWYRQAPGKQRDLVARISSGGSTYYADSVKGRFTISRDNSKNTLYLQMNSLRAEDTAVYYCYAQSTWYPPSWGQGTLVTVSS
For B2, the binding entry in experiment [2], in experiment [3] and in experiment [4] was “binds” in each case.

The record behind these values is patent publication US20210340272A1.
